Measured values taken from article PMC10163288.
Some of the results follow.

B1: il2ra_site2_3nfp_sap_20_mot_HHH_b1_00041_000000218_0001_43_58_H_._HHH_eva_0362_af2_0001_0000100003_0000001_0_0001 (protein)
chain: SSSSKSEEYLRIALELLREAEEAGDEESARSIAEAIAAAAETHGDEETLREAEELLERLNSSSSS
B2: il2ra_site2_3nfp_sap_22_mot_HHH_b2_06150_000000217_0001_39_53_H_._86920ccf215a9397388743310839e631_0001_1_0001_0000400018_0000001_0_0001 (protein)
chain: SSSSDEERIELLLEAAQLLLENIPDPEERRELEEAREELEREGDPRLVMKLYEIALRIYLSSSSS
B3: il2ra_site1_1z92_sap_18_mot_HHH_b2_04974_000000012_0001_1_17_H_._HHH_b2_04268_af2_0001_0000300036_0000001_1_0001_af2pred_0001_af2pred_swapped (protein)
chain: DEEELERLLRELIPDPELVKTLKRLFERSAELGIPPEKILRALLRAAERAGSEEAAEALEIILRR
B4: il2ra_site1_3nfp_normal_mot_HHH_b2_06121_000000007_0001_22_38_H_._HHH_b2_01497_af2_0001_0000100001_0000001_0_af2pred_0001_af2pred (protein)
chain: SSSSSEVQERVEELLEEAEELIKEGDYEEAREVIEEAHRLIRETGDRELFELLLEAIRRLSSSSS
B5: il2ra_site1_2b5i_normal_mot_HHH_b2_04910_000000118_0001_1_19_H_._HHH_b1_00060_af2_0001_0000500033_0000001_0_af2pred_0001_af2pred (protein)
chain: SSSSSELAEEAWELMREANELFKNGNPEEAHELLEEALRLAREGNNPNLARSIESMLEQAKSSSS
B6: il2ra_site2_2erj_normal_mot_HHH_b1_03609_af2_000000077_0001_42_55_H_._HHH_b1_04774_af2_0001_0000200008_0000001_0 (protein)
chain: SSSSDEEEERVRELLEEARELAKNGNPEEAWEVLREASELAFELGDFELWAEIAELLRELASSSS
B7: il2ra_site2_3nfp_sap_20_mot_HHH_b1_01086_000000225_0001_20_36_H_._HHH_b2_07053_0001_0000600014_0000001_0_0001 (protein)
chain: SSSSELEEYLRAALELAREALEEGDPELARRSLELALLSAEDAGDEEVLEEVEELLREVTSSSSS
B8: il2ra_site2_3nfp_sap_7_mot_73f63e3ba0c5fbd29b02c38bc3203c89_0001_1_000000101_0001_17_33_H_._HHH_b1_06312_0001_0000100001_0000001_0_0001 (protein)
chain: PVEELVEEVAKILGDPEFEETVKRALERLEEEGDEQALEYIEAALALIVEFNDPRLARRLLELLN
B9: il2ra_site1_2b5i_normal_mot_HHH_b2_01648_000000060_0001_42_56_H_._HHH_b1_05011_0001_0000300022_0000001_0 (protein)
chain: SSSSSRFIRRVLEDAREFFKELLEEGDEEALEKLLRELERLLELSRDPAAEELLRELEELLSSSS
B10: il2ra_site1_3nfp_sap_19_mot_HHH_b2_07201_af2_000000232_0001_1_20_H_._HHH_b1_07563_af2_0001_0000500024_0000001_0_0001_af2pred_0001_af2pred_1 (protein)
chain: SSRERLRRAREEGTLEELVERLLRRAAETTGDPERAKRILKSDLKKAGIPPEEVERLVKEAEELR
B11: il2ra_site2_3nfp_normal_mot_HHH_b1_06613_af2_000000098_0001_23_40_H_._HHH_b1_08035_af2_0001_0000100004_0000001_0 (protein)
chain: SSSSDELEELLKQAEELIEEGDPEEARQVLARAADVAYELGDHEAFAEIADLILLVLELESSSSS
B12: il2ra_site1_1z92_sap_29_mot_HHH_b2_01229_000000127_0001_19_35_H_._HHH_b2_00723_0001_0000100001_0000001_0_0001_af2pred_0001_af2pred_1 (protein)
chain: SSSSSTEELLRFLEEQARLKYERGNPEAAEKLIRHAKEEAEFAEDEEVLEELEKLEEELRSSSSS
B13: il2ra_site2_3nfp_sap_17_mot_HHH_b1_03612_af2_000000124_0001_42_57_H_._aee0ae143b6496be80667c74f1cea33a_0001_1_0001_0000300031_0000001_0_0001 (protein)
chain: SSSSDLEELLEELEQLIEEGNAHEAMQLAEEIHKLALKNNDPEALRAVLELYALLAKLYNRSSSS
B14: il2ra_site2_3nfp_sap_20_mot_HHH_b1_05627_af2_000000038_0001_43_56_H_._HHH_b2_05144_0001_0000100002_0000001_1_0001 (protein)
chain: SSSSSSDEAEKYIRAALELAKNIEDPRAARKTVELALKAAESNGDEELFQEAEELLEELSSSSSS
B15: il2ra_site1_1z92_normal_mot_01209686ea234b34325f918445e6eade_0001_af2_000000154_0001_18_33_H_._HHH_b2_04498_0001_0000200011_0000001_0_af2pred_0001_af2pred (protein)
chain: SSSSSDEEERIVEELIEELGGSEEEKEAAEKDAEAARRNGLSEENIRKALEKNIRAALELSSSSS
B16: il2ra_site2_2erj_normal_mot_HHH_b1_00839_000000020_0001_43_57_H_._HHH_b2_05093_0001_0000200001_0000001_0 (protein)
chain: SSSSSDHHEVAERVAELLQEARQIPDPEEREKVLEEARELAEENNNEFLRRFVEYVRRYLSSSSS
B17: il2ra_site2_2erj_normal_mot_HHH_b1_08185_000000063_0001_41_55_H_._HHH_b2_05996_0001_0000100004_0000001_0 (protein)
chain: SSSSSDEIEEEVLELIAEAAHVPDPKEAVEILREALELAEEYGNELLRRYLELSIKDIEGSSSSS
B18: il2ra_site2_3nfp_normal_mot_HHH_b1_05627_af2_000000038_0001_43_56_H_._HHH_b1_04509_0001_0000500028_0000001_0 (protein)
chain: SSSSDKQERYLRAALLVLREAVEHNNPELVQSHAEAAAALAEALRDPEVLREIEEILEELSSSSS
B19: il2ra_site1_2b5i_sap_14_mot_22370d59370c406a0c205a431f537cfa_0001_af2_000000057_0001_1_31_H_._1fb8bc4d5eb7dfe49bc92abe725735fb_0001_1_0002_0000300021_0000001_0_ … (protein)
chain: SSSSSSKAEEARKLLLDLDKKLKELSEEEQKKYLEEAKEKLKKLKHPSLIKIVEAALKKLSSSSS

molecular target: il2ra, P01589; assay: yeast display titration

Apparent Kd, inactive:
B1 no binding seen
B2 no binding seen
B3 no binding seen
B4 no binding seen
B5 no binding seen
B6 no binding seen
B7 no binding seen
B8 no binding seen
B9 no binding seen
B10 no binding seen
B11 no binding seen
B12 no binding seen
B13 no binding seen
B14 no binding seen
B15 no binding seen
B16 no binding seen
B17 no binding seen
B18 no binding seen
B19 no binding seen

Two successive records already listed, quoted:
Apparent Kd, inactive:
B10 no binding seen
B11 no binding seen
